Our source for the binding values is article PMC3621835.

Sequences of proteins named here, by UniProt entry; tags and fusion partners are left off. Residues count along the entry.
UniProt P57716, residues 28-708: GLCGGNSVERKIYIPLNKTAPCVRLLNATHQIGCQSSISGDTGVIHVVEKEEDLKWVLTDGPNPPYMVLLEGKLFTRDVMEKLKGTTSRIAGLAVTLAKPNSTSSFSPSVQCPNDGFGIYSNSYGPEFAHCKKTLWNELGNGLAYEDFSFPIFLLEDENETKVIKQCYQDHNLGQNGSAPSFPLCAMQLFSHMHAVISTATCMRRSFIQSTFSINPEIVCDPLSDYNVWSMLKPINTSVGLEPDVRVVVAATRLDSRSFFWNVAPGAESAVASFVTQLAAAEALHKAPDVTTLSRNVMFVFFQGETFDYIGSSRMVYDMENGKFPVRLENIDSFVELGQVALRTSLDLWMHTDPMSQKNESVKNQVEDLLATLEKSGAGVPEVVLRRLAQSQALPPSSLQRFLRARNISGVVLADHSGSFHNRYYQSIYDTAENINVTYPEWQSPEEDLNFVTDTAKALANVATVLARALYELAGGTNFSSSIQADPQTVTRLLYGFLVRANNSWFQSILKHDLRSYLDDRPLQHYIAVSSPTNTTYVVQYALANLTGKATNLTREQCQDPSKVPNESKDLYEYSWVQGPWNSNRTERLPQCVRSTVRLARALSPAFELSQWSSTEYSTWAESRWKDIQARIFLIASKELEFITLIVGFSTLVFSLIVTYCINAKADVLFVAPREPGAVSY
UniProt P14211, residues 18-416: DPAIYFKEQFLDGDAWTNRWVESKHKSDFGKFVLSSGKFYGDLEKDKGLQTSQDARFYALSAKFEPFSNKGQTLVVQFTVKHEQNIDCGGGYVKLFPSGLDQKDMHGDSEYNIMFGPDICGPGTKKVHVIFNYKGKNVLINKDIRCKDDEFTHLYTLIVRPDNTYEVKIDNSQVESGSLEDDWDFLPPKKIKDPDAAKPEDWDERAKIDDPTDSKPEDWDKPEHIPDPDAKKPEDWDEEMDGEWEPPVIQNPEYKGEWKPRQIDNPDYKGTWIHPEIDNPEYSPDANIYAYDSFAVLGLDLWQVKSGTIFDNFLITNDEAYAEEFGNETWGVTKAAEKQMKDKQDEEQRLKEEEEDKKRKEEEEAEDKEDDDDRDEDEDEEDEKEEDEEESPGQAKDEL
UniProt P15253, residues 18-418: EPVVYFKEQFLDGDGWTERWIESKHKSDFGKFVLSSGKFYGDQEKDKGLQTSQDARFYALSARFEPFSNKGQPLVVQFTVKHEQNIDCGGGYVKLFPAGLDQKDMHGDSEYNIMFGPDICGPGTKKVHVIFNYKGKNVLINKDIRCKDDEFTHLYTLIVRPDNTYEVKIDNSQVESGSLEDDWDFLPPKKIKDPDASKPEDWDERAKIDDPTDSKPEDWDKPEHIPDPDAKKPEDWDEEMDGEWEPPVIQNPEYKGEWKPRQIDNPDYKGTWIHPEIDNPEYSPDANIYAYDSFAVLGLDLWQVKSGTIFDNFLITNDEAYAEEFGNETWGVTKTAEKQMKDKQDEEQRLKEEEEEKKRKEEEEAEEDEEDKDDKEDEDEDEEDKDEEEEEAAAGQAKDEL
UniProt Q92542, residues 34-709: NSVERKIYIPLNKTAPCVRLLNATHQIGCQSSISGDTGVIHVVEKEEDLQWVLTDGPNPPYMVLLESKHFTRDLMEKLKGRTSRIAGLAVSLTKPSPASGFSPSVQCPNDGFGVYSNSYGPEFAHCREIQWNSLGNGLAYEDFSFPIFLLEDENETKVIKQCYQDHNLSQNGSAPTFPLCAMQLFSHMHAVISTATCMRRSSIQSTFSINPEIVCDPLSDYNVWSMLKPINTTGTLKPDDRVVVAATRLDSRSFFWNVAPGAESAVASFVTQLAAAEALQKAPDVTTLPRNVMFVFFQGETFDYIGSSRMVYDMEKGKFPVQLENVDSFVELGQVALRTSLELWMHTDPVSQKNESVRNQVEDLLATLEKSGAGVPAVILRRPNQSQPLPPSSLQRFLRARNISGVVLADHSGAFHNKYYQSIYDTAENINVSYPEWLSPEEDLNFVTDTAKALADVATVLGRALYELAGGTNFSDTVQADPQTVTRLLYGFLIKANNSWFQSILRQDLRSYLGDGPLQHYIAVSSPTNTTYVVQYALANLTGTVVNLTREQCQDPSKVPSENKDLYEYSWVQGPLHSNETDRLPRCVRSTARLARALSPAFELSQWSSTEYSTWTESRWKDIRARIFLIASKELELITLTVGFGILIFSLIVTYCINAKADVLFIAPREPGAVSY
UniProt P05067, residues 18-770: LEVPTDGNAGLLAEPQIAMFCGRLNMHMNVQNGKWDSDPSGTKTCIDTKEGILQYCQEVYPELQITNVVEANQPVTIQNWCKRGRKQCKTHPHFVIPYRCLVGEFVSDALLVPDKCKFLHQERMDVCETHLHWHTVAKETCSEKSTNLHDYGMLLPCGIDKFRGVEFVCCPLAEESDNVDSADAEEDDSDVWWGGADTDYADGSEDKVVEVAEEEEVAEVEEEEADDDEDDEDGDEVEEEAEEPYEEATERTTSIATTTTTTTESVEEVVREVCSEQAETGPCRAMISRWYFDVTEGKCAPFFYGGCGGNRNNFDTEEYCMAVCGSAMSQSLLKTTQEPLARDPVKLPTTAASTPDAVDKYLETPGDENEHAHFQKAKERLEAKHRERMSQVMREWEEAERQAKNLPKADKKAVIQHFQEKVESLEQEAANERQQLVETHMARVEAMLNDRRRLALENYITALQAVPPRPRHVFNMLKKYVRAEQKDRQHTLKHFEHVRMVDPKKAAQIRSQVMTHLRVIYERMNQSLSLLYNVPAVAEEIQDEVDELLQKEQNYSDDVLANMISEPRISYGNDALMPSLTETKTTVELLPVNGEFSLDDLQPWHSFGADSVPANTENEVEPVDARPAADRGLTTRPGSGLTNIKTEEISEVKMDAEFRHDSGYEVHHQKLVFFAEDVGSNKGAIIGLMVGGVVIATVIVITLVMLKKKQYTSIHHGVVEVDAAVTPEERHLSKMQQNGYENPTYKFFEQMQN

These are yes or no findings as the source states them, for the method shown. For some assays here: In cells and extracts the contact can be indirect. Some binding calls cover weakened binding; strength is not graded here.

For experiment [1], the target named is amyloid precursor protein (endogenous, mouse brain) (mouse (endogenous in brain synaptosomal fraction and brain homogenate)) (UniProt P12023). Nature of the experiment: co-IP; detergent extract (1% N-octyl β-D-glucopyranoside) of a synaptosomal fraction from mouse brain; antibodies 3 h at 4°C, Protein A/G beads overnight; Western blot. (Immunoblotting shows a protein as a band on a membrane.)

The target in experiment [2] is nicastrin (endogenous, mouse brain synaptosomal fraction) (mouse (endogenous in brain synaptosomal fraction)) (UniProt P57716). The description is as above.
In experiment [3] the target is calreticulin (endogenous, mouse brain synaptosomal fraction) (mouse (endogenous in brain synaptosomal fraction)) (UniProt P14211). The experiment is described as above.
In experiment [4] the target is T1, synthetic biotinylated APP-β peptide comprising the β-secretase cleavage site of APP.
T1 sequence (peptide, biotin on the N-terminus (biotin-TNIK...HQKC-OH)): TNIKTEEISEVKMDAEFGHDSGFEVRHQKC
Nature of the experiment: ELISA; biotinylated APP-γ or APP-β peptide coated; recombinant calreticulin at different concentrations in PBS-T with 1% BSA, 1 mM CaCl2, 1 mM MgCl2, 1 mM MnCl2, 1 h, room temperature; calreticulin antibody CRT283 and HRP-coupled secondary antibody; both purified.

Experiment [5] deals with GST fusion protein comprising full-length calreticulin (rabbit) (UniProt P15253). Nature of the experiment: pull-down; GST or GST-calreticulin fusion proteins on glutathione-agarose beads with solubilized membranes of HEK cells overexpressing presenilin, overnight at 4°C; Western blot with presenilin antibody 2953 or nicastrin antibody; only the target purified.
For experiment [6] the target is unchanged. Nature of the experiment: pull-down; GST or GST/calreticulin on glutathione-agarose beads with lysate of APP overexpressing CHO cells in the presence of Ca2+ or EGTA, overnight at 4°C; Western blot with 22C11; only the target purified.
The target is the same in experiment [7]. Nature of the experiment: pull-down; GST or GST-calreticulin fusion proteins on glutathione-agarose beads with lysates of CHO cells overexpressing full-length APP (no Ca2+ or EGTA added) or expressing the C99 APP stump, overnight at 4°C; Western blot; only the target purified.

As for “calreticulin (endogenous, mouse brain synaptosomal fraction) (from UniProt P14211 18-416)”, the figures for the binding entry in experiment [1] and in experiment [2] were “binds” and “binds weakly”, respectively. Regarding “nicastrin (endogenous, mouse brain synaptosomal fraction) (from UniProt P57716 28-708)”, the binding result in experiment [3] was “binds”. As to “recombinant rabbit calreticulin (from UniProt P15253 18-418)”, the binding entry in experiment [4] was “no binding”.

As for “nicastrin (HEK cells overexpressing presenilin) (from UniProt Q92542 34-709)”, the binding entry in experiment [5] is on record as “binds”. Regarding “amyloid precursor protein (endogenous, mouse brain) (from UniProt P12023 18-770)”, the binding result in experiment [3] was “binds”. For the substance “full-length amyloid precursor protein overexpressed in CHO cells (from UniProt P05067 18-770)”, the binding result in experiment [6] and in experiment [7] was “binds” in each case.
